Experimental data as given in publication doi:10.1101/2022.03.21.485049.
No constants are given. Whether binding was seen depends on the method and setting. In cells and extracts the contact can be indirect. Some entries that bind do so weakly or less than the wild type. Each block holds one molecule with its values, some of them ahead of it.

The chains behind the UniProt entries cited, without tags or fusion partners. Residues count along the entry.
UniProt Q9NZQ7, residues 19-290: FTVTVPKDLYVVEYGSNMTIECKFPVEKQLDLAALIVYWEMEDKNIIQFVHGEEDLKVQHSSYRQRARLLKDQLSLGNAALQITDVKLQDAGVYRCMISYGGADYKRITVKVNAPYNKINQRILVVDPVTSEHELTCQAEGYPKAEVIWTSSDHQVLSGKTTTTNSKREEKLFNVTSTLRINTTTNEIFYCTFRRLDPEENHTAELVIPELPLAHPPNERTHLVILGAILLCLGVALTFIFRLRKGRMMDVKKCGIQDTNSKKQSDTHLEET

Key:
[1] = target: T1, CMTM6 (human (endogenous in A375 and 2686 melanoma cells)) (UniProt Q9NX76); assay: co-IP
T1 sequence: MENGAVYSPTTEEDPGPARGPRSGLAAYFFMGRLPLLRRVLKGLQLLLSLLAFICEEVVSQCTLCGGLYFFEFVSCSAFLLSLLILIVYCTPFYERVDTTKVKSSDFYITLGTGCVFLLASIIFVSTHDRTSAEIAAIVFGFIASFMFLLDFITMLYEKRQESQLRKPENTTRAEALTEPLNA

[2] = target: PD-L1 (human (endogenous in 2686 melanoma cells)) (UniProt Q9NZQ7); assay: co-IP

binding [1]: binds
Molecule: PD-L1 (from UniProt Q9NZQ7 19-290)

binding [2]: binds
B1: CMTM6 (protein, UniProt Q9NX76 1-183)
chain: T1 sequence
